Reference: article doi:10.1101/2025.02.14.638310 (bioRxiv, 2025)
These are yes or no findings as the source states them, for the method shown. Binding calls can cover weak binding; strength is not graded here.

Sequences of proteins named here, by UniProt entry; tags and fusion partners are left off. A change or cut given only in a name is not applied to a line headed by its entry. Residues count along the entry.
UniProt Q8I6T1, residues 28-426: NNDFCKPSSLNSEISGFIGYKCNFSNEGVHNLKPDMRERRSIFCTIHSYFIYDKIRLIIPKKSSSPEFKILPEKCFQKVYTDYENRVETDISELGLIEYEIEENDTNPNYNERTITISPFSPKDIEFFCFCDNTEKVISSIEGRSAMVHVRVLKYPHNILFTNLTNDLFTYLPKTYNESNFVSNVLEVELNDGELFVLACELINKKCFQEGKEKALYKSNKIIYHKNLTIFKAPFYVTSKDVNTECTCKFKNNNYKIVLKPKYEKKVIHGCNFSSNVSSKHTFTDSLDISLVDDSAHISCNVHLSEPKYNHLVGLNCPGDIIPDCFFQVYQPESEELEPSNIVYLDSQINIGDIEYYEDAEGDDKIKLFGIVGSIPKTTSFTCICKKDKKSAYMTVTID
UniProt P68874: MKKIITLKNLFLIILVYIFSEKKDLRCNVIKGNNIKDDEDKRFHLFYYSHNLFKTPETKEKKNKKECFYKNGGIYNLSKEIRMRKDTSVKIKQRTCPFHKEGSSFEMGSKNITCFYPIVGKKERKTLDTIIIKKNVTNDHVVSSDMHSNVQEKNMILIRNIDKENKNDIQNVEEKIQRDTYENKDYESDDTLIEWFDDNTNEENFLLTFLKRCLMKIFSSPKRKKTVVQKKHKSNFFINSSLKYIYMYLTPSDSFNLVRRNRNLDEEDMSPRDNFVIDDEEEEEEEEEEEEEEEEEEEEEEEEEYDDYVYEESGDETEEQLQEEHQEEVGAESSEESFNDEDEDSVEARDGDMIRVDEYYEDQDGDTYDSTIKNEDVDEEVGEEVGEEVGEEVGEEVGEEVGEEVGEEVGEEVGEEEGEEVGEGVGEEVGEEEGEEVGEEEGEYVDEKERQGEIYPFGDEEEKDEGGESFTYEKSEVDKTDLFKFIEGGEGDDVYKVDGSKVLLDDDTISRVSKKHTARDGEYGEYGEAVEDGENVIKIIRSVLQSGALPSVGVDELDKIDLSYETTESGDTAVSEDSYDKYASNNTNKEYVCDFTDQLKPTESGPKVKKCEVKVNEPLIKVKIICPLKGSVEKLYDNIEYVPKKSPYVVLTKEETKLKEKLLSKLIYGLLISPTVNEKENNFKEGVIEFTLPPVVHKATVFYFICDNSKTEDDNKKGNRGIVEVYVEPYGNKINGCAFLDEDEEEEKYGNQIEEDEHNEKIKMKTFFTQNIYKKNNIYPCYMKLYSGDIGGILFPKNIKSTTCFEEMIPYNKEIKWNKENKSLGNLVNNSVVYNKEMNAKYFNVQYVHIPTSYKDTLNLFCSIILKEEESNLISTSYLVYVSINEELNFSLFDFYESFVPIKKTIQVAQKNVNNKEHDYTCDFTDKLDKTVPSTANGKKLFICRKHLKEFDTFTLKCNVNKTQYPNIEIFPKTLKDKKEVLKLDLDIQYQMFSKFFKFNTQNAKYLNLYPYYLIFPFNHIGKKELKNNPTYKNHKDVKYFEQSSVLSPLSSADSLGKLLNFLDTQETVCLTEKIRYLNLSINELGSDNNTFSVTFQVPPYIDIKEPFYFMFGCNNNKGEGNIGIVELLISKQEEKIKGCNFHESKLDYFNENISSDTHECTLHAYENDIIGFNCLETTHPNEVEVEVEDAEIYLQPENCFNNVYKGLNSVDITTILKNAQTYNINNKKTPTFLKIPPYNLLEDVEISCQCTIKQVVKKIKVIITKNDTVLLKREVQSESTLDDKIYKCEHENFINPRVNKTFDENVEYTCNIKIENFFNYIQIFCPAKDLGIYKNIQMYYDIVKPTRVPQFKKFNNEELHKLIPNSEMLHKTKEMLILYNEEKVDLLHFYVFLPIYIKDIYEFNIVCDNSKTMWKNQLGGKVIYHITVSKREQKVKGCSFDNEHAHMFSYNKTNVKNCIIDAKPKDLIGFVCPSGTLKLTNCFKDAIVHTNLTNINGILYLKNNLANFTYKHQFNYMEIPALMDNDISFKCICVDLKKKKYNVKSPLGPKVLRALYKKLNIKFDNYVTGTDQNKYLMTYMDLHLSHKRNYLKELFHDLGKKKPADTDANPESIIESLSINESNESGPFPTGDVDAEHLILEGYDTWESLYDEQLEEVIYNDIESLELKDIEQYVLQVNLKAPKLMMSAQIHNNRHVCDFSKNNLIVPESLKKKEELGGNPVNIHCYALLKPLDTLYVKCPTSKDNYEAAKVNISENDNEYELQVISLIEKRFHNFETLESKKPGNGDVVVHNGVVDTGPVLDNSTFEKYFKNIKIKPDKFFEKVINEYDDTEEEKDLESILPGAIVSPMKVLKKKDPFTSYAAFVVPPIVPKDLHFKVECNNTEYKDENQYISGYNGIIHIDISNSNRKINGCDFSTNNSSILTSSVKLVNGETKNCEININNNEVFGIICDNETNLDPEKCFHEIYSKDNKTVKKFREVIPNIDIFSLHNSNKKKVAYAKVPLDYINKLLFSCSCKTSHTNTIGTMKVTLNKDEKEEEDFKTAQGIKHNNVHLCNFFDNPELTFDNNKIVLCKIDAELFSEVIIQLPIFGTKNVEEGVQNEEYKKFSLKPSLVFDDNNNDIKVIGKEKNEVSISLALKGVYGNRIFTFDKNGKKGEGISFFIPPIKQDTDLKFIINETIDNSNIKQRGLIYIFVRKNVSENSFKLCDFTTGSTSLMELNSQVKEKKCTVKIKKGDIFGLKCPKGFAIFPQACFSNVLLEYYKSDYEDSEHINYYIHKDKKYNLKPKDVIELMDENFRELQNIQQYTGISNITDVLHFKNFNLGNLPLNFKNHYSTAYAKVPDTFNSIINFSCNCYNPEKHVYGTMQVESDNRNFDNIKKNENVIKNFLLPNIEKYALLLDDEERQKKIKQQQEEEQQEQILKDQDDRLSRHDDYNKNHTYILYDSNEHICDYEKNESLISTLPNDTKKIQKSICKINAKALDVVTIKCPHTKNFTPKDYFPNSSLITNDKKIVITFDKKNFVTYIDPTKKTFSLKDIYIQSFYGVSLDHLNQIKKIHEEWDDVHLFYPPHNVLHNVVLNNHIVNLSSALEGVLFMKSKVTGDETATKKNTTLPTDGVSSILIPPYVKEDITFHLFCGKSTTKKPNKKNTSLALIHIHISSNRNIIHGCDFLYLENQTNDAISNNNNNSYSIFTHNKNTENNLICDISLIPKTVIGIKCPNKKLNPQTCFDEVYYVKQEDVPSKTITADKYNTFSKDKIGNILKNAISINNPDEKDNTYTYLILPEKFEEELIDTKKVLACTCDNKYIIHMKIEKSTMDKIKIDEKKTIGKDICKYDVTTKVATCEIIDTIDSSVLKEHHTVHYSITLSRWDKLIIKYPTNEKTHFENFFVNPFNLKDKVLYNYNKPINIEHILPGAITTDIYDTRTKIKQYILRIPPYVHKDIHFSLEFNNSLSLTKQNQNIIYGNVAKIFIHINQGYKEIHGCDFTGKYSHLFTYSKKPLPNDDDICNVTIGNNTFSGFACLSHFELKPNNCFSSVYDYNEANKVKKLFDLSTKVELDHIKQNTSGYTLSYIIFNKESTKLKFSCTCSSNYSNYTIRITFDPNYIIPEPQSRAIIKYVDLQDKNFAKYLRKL

Target: Pfs48/45 (endogenous) (Plasmodium falciparum (endogenous in NF54 gametocytes and gametes)) (UniProt Q8I6T1)
Assay: flow cytometry on cells; only the binder purified

## Pfs230D13–14-Cterm (recombinant double domain, residue 2831–3105) (from UniProt P68874) (domain or fragment)
  binding: binds
